Literature values, collected in patent US20100022464A1, “FUNCTIONAL FOOD COMPOSITION THAT IS RICH IN PHENOLIC COMPOUNDS AND USE OF SAID COMPOSITION” (FURFURAL ESPANOL, S.A., priority 2006, published 2010).
Where two headings read alike, the source gives them in different places. At least one compound was matched to its structure with a doubt left.

Key:
oxidized phospholipids = details: for oxidation of phospholipids: does not prevent the oxidation
[1] = oleuropein added in the diet

SMILES | oxidation of phospholipids (oxidized phospholipids; 5 microM) | oxidation of phospholipids (oxidized phospholipids; 15 microM) | prevention of formation of oxidized phospholipids (oxidized phospholipids; concentrations higher than 30 microM) | LDL dimensions, higher [1] | LDL resistance to oxidation (formation of conjugated dienes) [1] | change of esterified plasma cholesterol level [1] [%] | change of free plasma cholesterol level [1] [%] | change of total plasma cholesterol level [1] [%] | prevention of oxidation of phospholipids and cholesterol (oxidized phospholipids; any of the tested concentrations)
C/C=C1/[C@H](O[C@@H]2O[C@H](CO)[C@@H](O)[C@H](O)[C@H]2O)OC=C(C(=O)OC)[C@H]1CC(=O)OCCc1ccc(O)c(O)c1 [oleuropein] | 8.02+/−1.22 | 1.22+/−1.22 | completely prevents | about 12% | increases the possibility of LDLs for resisting oxidation | −17 | −12 | −15 | –
OCCc1ccc(O)c(O)c1 [hydroxytyrosol] | – | – | – | – | – | – | – | – | no effect
